Among the data in publication doi:10.1101/2021.05.03.442108 are binding values, retold here.

These are yes or no findings as the source states them, for the method shown. Binding seen in cells or lysates may run through a third protein. Here binding means that the protein was enriched with, or labelled near, the bait; the list need not be complete.

The target in this assay is NKS1-GFP (Arabidopsis thaliana) (UniProt F4JR56). The assay is described as follows: affinity purification with mass spectrometry.

B1: QUA2 (protein, UniProt Q9C9Q8 1-684)
chain: MSMPLQRGISGVRVSDSSDDLRDSQMKDKTERARSTENNNLTLRFPFGFLFSNQSSSKHGGGGENGFSADPYSARSRHRLMLLFLKISLVLIVVIALAGSFWWTISISTSSRGHVYHNYRRLQEQLVSDLWDIGEISLGPNRWKELEYCNIESENFVPCFNVSENLALGYSNGDENDRFCGPGSKQECLELPPVKYRVPLRWPTGKDIIWHSNVKITAQEVVSSGSITKRMMMMEDDQISFRSASPMSDEVEDYSHQIAEMIGIKKDNFIEAGVRTILDIGCGYGSFGAHLLSKQILTMCIANYEASGSQVQLTLERGLPAMIGSFISKQLPYPSLSFDMLHCLRCGIDWDQKDGLLLVEIDRVLKPGGYFVWTSPLTNPRNKDHLKRWNFVHDFAESICWTLLNQQDETVVWKKTINTKCYSSRKPGVGPSVCTKGHDVESPYYRPLQMCIGGTRSRRWIPIEGRTRWPSRSNMNKTELSLYGLHPEVLGEDAENWKITVREYWSLLSPLIFSDHPKRPGDEDPSPPYNMLRNVLDMNAQFGGLNSALLEARKSVWVMNVVPTAGPNHLPMILDRGFVGVLHNWCEPFPTYPRTYDLVHADNLLSLQTSQPRKTCLLIDIFTEIDRLLRPEGWVIIRDTAQLVEKARETITQLKWEARVIEVESSSEQRLLICQKPFTKRQSI
As for B1, the binding result is on record as “binds”.

B2: QUA1 (protein, UniProt Q9LSG3 1-559)
chain: MANHHRLLRGGGSPAIIGGRITLTAFASTIALFLFTLSFFFASDSNDSPDLLLPGVEYSNGVGSRRSMLDIKSDPLKPRLIQIRKQADDHRSLALAYASYARKLKLENSKLVRIFADLSRNYTDLINKPTYRALYDSDGASIEESVLRQFEKEVKERIKMTRQVIAEAKESFDNQLKIQKLKDTIFAVNEQLTNAKKQGAFSSLIAAKSIPKGLHCLAMRLMEERIAHPEKYTDEGKDRPRELEDPNLYHYAIFSDNVIAASVVVNSAVKNAKEPWKHVFHVVTDKMNLGAMQVMFKLKEYKGAHVEVKAVEDYTFLNSSYVPVLKQLESANLQKFYFENKLENATKDTTNMKFRNPKYLSILNHLRFYLPEMYPKLHRILFLDDDVVVQKDLTGLWEIDMDGKVNGAVETCFGSFHRYAQYMNFSHPLIKEKFNPKACAWAYGMNFFDLDAWRREKCTEEYHYWQNLNENRALWKLGTLPPGLITFYSTTKPLDKSWHVLGLGYNPSISMDEIRNAAVVHFNGNMKPWLDIAMNQFRPLWTKHVDYDLEFVQACNFGL
With B2, the binding entry was “binds”.
